Measurements reported in paper PMC7618180.
Results are given in words; binding and its absence hold for the method and conditions named. Some results given as binding are weak or reduced against the parent protein; the word gives no strength.

Sequences of proteins named here, by UniProt entry; tags and fusion partners are left off.
UniProt Q9SRU2: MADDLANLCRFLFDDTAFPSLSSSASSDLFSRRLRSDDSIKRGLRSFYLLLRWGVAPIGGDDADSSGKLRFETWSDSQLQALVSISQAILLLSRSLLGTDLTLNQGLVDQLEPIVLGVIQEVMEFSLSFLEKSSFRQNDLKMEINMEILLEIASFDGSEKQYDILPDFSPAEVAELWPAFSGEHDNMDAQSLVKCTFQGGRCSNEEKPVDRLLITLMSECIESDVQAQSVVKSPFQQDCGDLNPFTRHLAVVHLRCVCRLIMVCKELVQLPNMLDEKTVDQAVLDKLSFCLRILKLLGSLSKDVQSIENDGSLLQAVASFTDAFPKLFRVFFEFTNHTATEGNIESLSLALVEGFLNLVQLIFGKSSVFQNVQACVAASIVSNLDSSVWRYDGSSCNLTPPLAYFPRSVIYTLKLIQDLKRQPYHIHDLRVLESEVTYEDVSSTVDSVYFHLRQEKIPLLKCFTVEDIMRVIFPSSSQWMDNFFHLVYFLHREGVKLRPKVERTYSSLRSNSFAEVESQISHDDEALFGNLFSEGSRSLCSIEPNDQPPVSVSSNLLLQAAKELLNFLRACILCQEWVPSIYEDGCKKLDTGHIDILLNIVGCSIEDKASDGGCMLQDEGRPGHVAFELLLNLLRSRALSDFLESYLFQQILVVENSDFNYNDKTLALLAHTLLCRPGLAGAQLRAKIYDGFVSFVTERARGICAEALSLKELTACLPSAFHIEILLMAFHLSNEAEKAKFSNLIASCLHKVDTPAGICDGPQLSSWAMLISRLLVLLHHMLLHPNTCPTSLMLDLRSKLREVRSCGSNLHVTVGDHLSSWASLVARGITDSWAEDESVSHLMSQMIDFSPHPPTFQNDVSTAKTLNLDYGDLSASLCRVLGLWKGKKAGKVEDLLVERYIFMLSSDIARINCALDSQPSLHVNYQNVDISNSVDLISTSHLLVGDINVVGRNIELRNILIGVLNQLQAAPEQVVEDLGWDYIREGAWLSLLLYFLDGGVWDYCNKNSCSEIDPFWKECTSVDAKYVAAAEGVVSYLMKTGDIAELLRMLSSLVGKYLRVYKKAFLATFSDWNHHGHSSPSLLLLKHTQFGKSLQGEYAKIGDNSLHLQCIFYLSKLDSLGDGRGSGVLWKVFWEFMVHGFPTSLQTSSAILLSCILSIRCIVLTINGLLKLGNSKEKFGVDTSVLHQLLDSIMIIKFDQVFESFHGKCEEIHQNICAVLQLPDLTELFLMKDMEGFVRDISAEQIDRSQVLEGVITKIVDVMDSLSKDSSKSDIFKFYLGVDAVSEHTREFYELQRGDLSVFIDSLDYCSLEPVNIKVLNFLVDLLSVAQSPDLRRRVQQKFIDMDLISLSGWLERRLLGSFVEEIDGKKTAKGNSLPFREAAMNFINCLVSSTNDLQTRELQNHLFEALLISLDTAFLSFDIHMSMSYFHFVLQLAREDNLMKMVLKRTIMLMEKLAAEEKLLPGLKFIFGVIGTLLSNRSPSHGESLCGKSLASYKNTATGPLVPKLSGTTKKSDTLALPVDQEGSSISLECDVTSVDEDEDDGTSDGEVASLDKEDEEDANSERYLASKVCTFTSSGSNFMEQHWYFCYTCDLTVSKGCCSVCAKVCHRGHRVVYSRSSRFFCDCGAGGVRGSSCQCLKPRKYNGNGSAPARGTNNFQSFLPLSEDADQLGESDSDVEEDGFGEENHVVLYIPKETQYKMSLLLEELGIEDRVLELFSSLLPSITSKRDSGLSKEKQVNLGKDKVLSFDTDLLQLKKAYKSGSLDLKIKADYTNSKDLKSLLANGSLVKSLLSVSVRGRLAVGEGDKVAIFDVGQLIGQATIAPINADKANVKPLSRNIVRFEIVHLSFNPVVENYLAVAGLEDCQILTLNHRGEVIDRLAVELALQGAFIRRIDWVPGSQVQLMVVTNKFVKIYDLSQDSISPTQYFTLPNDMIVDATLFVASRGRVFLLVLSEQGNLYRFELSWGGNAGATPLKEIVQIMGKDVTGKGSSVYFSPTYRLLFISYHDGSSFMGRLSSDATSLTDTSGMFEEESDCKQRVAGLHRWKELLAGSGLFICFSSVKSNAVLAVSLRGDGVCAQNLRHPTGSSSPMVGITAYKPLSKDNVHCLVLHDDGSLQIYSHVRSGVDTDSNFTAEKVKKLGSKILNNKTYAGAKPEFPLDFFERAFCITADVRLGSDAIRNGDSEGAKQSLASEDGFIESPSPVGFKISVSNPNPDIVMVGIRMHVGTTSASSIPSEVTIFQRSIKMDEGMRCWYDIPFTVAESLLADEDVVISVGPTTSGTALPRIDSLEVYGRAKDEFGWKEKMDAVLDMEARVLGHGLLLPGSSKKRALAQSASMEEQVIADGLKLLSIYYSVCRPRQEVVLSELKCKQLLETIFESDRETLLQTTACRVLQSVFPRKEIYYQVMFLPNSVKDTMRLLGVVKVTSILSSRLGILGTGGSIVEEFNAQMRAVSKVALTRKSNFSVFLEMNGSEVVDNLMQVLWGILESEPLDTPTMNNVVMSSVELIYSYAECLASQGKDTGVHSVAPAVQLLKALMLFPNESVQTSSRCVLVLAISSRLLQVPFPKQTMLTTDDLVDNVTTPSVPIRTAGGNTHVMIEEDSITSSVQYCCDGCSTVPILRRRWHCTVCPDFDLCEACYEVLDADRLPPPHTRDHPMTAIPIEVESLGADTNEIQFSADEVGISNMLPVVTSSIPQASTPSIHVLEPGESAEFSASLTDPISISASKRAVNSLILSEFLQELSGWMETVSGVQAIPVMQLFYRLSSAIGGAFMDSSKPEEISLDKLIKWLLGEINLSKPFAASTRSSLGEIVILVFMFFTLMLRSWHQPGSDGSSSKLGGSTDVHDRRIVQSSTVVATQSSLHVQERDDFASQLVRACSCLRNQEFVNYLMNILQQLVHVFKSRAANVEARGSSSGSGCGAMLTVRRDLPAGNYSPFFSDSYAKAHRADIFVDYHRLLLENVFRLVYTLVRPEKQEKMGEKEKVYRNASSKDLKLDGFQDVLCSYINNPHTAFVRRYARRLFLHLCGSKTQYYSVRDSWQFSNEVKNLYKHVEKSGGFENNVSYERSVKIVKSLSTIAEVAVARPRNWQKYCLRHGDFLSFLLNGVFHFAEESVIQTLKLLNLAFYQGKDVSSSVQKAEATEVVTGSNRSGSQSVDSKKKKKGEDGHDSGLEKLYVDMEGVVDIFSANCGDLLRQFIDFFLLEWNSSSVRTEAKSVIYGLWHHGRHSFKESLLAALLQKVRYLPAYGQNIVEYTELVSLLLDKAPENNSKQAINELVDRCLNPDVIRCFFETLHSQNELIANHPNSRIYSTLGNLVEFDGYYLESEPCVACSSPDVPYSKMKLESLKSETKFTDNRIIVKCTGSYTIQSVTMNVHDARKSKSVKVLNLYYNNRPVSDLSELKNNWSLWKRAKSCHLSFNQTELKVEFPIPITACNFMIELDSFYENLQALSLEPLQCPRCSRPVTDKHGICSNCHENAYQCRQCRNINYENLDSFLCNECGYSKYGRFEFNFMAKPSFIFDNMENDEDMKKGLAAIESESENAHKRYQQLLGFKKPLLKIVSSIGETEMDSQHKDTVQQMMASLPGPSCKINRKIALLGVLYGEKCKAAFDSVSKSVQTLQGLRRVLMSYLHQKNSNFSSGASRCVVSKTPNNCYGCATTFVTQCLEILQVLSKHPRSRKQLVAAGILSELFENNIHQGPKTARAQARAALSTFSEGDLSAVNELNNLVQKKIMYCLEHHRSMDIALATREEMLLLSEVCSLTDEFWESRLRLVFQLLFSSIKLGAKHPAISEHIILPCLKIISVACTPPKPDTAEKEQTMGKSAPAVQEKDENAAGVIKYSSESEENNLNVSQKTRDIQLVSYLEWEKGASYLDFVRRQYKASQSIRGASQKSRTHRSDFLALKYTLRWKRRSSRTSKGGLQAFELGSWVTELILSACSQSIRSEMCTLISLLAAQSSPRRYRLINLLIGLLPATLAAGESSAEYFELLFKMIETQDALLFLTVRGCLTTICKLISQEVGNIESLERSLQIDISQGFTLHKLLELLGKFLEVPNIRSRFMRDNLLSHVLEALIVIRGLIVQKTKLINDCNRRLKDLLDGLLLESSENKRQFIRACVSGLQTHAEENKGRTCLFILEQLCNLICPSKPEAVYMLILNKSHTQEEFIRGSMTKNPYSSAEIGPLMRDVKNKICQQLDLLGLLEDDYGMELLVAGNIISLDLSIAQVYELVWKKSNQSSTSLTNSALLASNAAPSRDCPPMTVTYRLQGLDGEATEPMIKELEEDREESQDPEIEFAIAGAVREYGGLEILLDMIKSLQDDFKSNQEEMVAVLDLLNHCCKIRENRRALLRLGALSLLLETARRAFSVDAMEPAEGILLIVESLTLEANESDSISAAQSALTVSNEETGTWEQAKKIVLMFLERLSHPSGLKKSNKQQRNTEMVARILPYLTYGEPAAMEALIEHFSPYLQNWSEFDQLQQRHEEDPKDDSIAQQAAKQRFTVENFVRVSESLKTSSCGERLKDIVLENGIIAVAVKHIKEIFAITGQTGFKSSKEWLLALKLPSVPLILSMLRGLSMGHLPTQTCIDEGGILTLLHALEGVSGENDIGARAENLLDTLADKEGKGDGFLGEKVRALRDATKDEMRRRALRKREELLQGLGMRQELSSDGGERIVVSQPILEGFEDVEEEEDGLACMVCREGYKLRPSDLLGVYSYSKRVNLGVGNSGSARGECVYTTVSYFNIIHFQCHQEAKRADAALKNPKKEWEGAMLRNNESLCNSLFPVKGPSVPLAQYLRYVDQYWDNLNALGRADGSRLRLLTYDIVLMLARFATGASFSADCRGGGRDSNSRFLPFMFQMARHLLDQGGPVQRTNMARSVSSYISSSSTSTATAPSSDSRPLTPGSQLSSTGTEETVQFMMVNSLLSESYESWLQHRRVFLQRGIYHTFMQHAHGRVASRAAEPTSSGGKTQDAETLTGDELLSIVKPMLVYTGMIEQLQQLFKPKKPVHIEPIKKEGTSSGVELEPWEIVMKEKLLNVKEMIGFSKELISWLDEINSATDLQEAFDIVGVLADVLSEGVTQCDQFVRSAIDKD

How the values were obtained:
[1] = biological target: C. elegans UBR4 (C. elegans); test: cryo-EM structure; C. elegans UBR4 complex; low resolution map from a global 3D classification shows a bound substrate; both purified
[2] = biological target: Arabidopsis thaliana UBR4 (also known as BIG) (Arabidopsis thaliana) (UniProt Q9SRU2); test: cryo-EM structure; complex from co-expression of AtUBR4, AtDI19 and AtCALM1; medium resolution map of the dimerization interface, modelled using AlphaFold3; both purified

Binder | binding [1] | binding [2]
C. elegans KCMF1 (ZK652.6) (protein, UniProt P34664 1-575) MVTPLTGTHEGVSCDGCAFTAFAGNRYKCLRCSDYDLCFSCFTTKNYGDQQTIADIPIHDESHPMQLILSSVDFDLVYQGDPTRHYDERKIVSFTCPYCNITGLTERQFGTHVLSQHPEAPGYSVICPLCIGNTEMEHIQSKETENLSVHWTEIHLHTMENLFRSTEPITTRPVQRRPMLARRGNRAGVSRTAAQGRPLQDEIGAEMAALLRNMGPDSVEDIRRFTEMMTVPLLPGIRSSQRLMTSTGDRPTVVVESAVTHQDPNVQQVIRPLATIPIYPPTSDESGDETPQPAADSADESEDDNDIQELDDMQPIVEDEALKKDEFWKTLKTRISEEDVDLILETMKSTAKVKEDIDDKMPVWTQRPLKRLANAAQVTTTSDSEGDPGWLPLSFETTPIRSTGCGGYWSDKRFLRPRKMQREQSVASSNAEIMEKAEIALALIRASCLHEPVFTDPTKPDIALKEALQHLRLGEKPAKMMEYQAAEELVNMPERDPITTGEMEVEIPDFTARGYGQIVDGNIPLGVVPEADEAITNSEDEEIVGGETSGDDEDEQEDDENDSQDSSVPEEINID | binds | 
Arabidopsis thaliana Drought-induced protein 19 (DI19) (protein, UniProt Q39083 1-206) MDADSKRFLATLRSRSEMLMGFEEIDGDDDFQEEFACPFCAESYDIIGLCCHIDDEHTLESKNAVCPVCSLKVGVDIVAHITLHHGSLFKLQRKRKSRKSGTNSTLSLLRKELREGDLQRLLGFTSRNGSVASSVTPDPLLSSFISPTRSQSSPAPRQTKNVSEDKQIERKRQVFISPVSLKDREERRHKSEFVQRLLSSAIFDEV |  | binds
